Measurements reported in paper PMC12674617.
No constants are given. Whether binding was seen depends on the method and setting. In cells and extracts the contact can be indirect. Some results given as binding are weak or reduced against the parent protein; the word gives no strength.

By UniProt entry, the sequences of proteins in these tests, tags left out.
UniProt Q8TD16: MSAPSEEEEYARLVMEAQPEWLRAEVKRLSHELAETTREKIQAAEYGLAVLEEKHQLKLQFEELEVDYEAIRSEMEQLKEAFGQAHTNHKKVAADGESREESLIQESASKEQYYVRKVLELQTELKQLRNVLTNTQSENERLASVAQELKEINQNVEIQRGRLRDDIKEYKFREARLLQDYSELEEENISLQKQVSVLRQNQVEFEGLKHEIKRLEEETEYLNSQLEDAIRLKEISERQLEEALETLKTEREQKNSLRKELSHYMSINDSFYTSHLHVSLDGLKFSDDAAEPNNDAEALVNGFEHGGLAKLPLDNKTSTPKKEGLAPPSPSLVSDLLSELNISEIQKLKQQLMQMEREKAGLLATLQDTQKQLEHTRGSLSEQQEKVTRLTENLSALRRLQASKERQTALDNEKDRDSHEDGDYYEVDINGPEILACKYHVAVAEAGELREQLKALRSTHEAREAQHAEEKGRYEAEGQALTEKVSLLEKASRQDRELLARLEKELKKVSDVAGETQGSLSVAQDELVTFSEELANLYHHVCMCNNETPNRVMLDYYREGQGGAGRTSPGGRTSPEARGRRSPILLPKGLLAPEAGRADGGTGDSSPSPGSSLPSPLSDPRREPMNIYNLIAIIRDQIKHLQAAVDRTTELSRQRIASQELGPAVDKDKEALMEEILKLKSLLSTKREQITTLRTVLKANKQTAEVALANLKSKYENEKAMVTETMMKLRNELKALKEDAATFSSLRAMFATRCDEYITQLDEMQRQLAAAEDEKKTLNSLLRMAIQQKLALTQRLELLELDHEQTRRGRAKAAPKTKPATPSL

Molecular target: full-length BICD2 tagged on the C-terminus with mini-TurboID (BICD2-mTrbo) (human) (UniProt Q8TD16)
Experiment: co-IP; HEK293 FLP-in T-Rex cells, Tet induction 1 µg/ml 24 hr; lysate in RIPA buffer, 1 mg protein, V5-Trap agarose beads 2 hr at 4 °C, four RIPA washes, western blot; also in cells treated with siRNA to endogenous BICD2

Row | Binder | binding
1 | VPS41 (protein, UniProt P49754 1-854) MAEAEEQETGSLEESTDESEEEESEEEPKLKYERLSNGVTEILQKDAASCMTVHDKFLALGTHYGKVYLLDVQGNITQKFDVSPVKINQISLDESGEHMGVCSEDGKVQVFGLYSGEEFHETFDCPIKIIAVHPHFVRSSCKQFVTGGKKLLLFERSWMNRWKSAVLHEGEGNIRSVKWRGHLIAWANNMGVKIFDIISKQRITNVPRDDISLRPDMYPCSLCWKDNVTLIIGWGTSVKVCSVKERHASEMRDLPSRYVEIVSQFETEFYISGLAPLCDQLVVLSYVKEISEKTEREYCARPRLDIIQPLSETCEEISSDALTVRGFQENECRDYHLEYSEGESLFYIVSPRDVVVAKERDQDDHIDWLLEKKKYEEALMAAEISQKNIKRHKILDIGLAYINHLVERGDYDIAARKCQKILGKNAALWEYEVYKFKEIGQLKAISPYLPRGDPVLKPLIYEMILHEFLESDYEGFATLIREWPGDLYNNSVIVQAVRDHLKKDSQNKTLLKTLAELYTYDKNYGNALEIYLTLRHKDVFQLIHKHNLFSSIKDKIVLLMDFDSEKAVDMLLDNEDKISIKKVVEELEDRPELQHVYLHKLFKRDHHKGQRYHEKQISLYAEYDRPNLLPFLRDSTHCPLEKALEICQQRNFVEETVYLLSRMGNSRSALKMIMEELHDVDKAIEFAKEQDDGELWEDLILYSIDKPPFITGLLNNIGTHVDPILLIHRIKEGMEIPNLRDSLVKILQDYNLQILLREGCKKILVADSLSLLKKMHRTQMKGVLVDEENICESCLSPILPSDAAKPFSVVVFHCRHMFHKECLPMPSMNSAAQFCNICSAKNRGPGSAILEMKK | binds
2 | VPS16 (protein, UniProt Q9H269 1-839) MDCYTANWNPLGDSAFYRKYELYSMDWDLKEELRDCLVAAAPYGGPIALLRNPWRKEKAASVRPVLDIYSASGMPLASLLWKSGPVVSLGWSAEEELLCVQEDGAVLVYGLHGDFRRHFSMGNEVLQNRVLDARIFHTEFGSGVAILTGAHRFTLSANVGDLKLRRMPEVPGLQSAPSCWTVLCQDRVAHILLAVGPDLYLLDHAACSAVTPPGLAPGVSSFLQMAVSFTYRHLALFTDTGYIWMGTASLKEKLCEFNCNIRAPPKQMVWCSRPRSKERAVVVAWERRLMVVGDAPESIQFVLDEDSYLVPELDGVRIFSRSTHEFLHEVPAASEEIFKIASMAPGALLLEAQKEYEKESQKADEYLREIQELGQLTQAVQQCIEAAGHEHQPDMQKSLLRAASFGKCFLDRFPPDSFVHMCQDLRVLNAVRDYHIGIPLTYSQYKQLTIQVLLDRLVLRRLYPLAIQICEYLRLPEVQGVSRILAHWACYKVQQKDVSDEDVARAINQKLGDTPGVSYSDIAARAYGCGRTELAIKLLEYEPRSGEQVPLLLKMKRSKLALSKAIESGDTDLVFTVLLHLKNELNRGDFFMTLRNQPMALSLYRQFCKHQELETLKDLYNQDDNHQELGSFHIRASYAAEERIEGRVAALQTAADAFYKAKNEFAAKATEDQMRLLRLQRRLEDELGGQFLDLSLHDTVTTLILGGHNKRAEQLARDFRIPDKRLWWLKLTALADLEDWEELEKFSKSKKSPIGYLPFVEICMKQHNKYEAKKYASRVGPEQKVKALLLVGDVAQAADVAIEHRNEAELSLVLSHCTGATDGATADKIQRARAQAQKK | binds
3 | VPS18 (protein, UniProt Q9P253 1-973) MASILDEYENSLSRSAVLQPGCPSVGIPHSGYVNAQLEKEVPIFTKQRIDFTPSERITSLVVSSNQLCMSLGKDTLLRIDLGKANEPNHVELGRKDDAKVHKMFLDHTGSHLLIALSSTEVLYVNRNGQKVRPLARWKGQLVESVGWNKALGTESSTGPILVGTAQGHIFEAELSASEGGLFGPAPDLYFRPLYVLNEEGGPAPVCSLEAERGPDGRSFVIATTRQRLFQFIGRAAEGAEAQGFSGLFAAYTDHPPPFREFPSNLGYSELAFYTPKLRSAPRAFAWMMGDGVLYGALDCGRPDSLLSEERVWEYPEGVGPGASPPLAIVLTQFHFLLLLADRVEAVCTLTGQVVLRDHFLEKFGPLKHMVKDSSTGQLWAYTERAVFRYHVQREARDVWRTYLDMNRFDLAKEYCRERPDCLDTVLAREADFCFRQRRYLESARCYALTQSYFEEIALKFLEARQEEALAEFLQRKLASLKPAERTQATLLTTWLTELYLSRLGALQGDPEALTLYRETKECFRTFLSSPRHKEWLFASRASIHELLASHGDTEHMVYFAVIMQDYERVVAYHCQHEAYEEALAVLARHRDPQLFYKFSPILIRHIPRQLVDAWIEMGSRLDARQLIPALVNYSQGGEVQQVSQAIRYMEFCVNVLGETEQAIHNYLLSLYARGRPDSLLAYLEQAGASPHRVHYDLKYALRLCAEHGHHRACVHVYKVLELYEEAVDLALQVDVDLAKQCADLPEEDEELRKKLWLKIARHVVQEEEDVQTAMACLASCPLLKIEDVLPFFPDFVTIDHFKEAICSSLKAYNHHIQELQREMEEATASAQRIRRDLQELRGRYGTVEPQDKCATCDFPLLNRPFYLFLCGHMFHADCLLQAVRPGLPAYKQARLEELQRKLGAAPPPAKGSARAKEAEGGAATAGPSREQLKADLDELVAAECVYCGELMIRSIDRPFIDPQRYEEEQLSWL | binds
